Here are results for 2 molecules from publication PMC5715073.

These are yes or no findings as the source states them, for the method shown. Binding seen in cells or lysates may run through a third protein. Some binding calls cover weakened binding; strength is not graded here.

What all share (assay): co-IP; cells cross-linked with 2 mM DSP (1 h, RT) before lysis in NP-40 buffer (50 mM Tris-HCl pH 8.0, 150 mM NaCl, 1% NP-40); 1 mg pre-cleared lysate, 2 µg anti-IL-13Rα2, anti-EGFR or anti-Grb2, protein G beads, 4 °C; immunoblot
On the technique in general: A western blot detects proteins with antibodies after separation by electrophoresis.

Test [1] addresses wild-type EGFR stably expressed in Gli36 cells (human) (UniProt P00533).
Test [2] concerns the target wild-type EGFR, tetracycline-induced in U251-E6 cells (human) (UniProt P00533).
Test [3] has as its target endogenous wild-type EGFR of primary wtEGFR-positive GBM patient tumor (human (endogenous in primary GBM patient tumor)) (UniProt P00533).

B1: interleukin-13 receptor alpha 2 (IL-13Rα2), full length, stably expressed in Gli36 cells (receptor, UniProt Q14627 27-380)
chain: DTEIKVNPPQDFEIVDPGYLGYLYLQWQPPLSLDHFKECTVEYELKYRNIGSETWKTIITKNLHYKDGFDLNKGIEAKIHTLLPWQCTNGSEVQSSWAETTYWISPQGIPETKVQDMDCVYYNWQYLLCSWKPGIGVLLDTNYNLFYWYEGLDHALQCVDYIKADGQNIGCRFPYLEASDYKDFYICVNGSSENKPIRSSYFTFQLQNIVKPLPPVYLTFTRESSCEIKLKWSIPLGPIPARCFDYEIEIREDDTTLVTATVENETYTLKTTNETRQLCFVVRSKVNIYCSDDGIWSEWSDKQCWEGEDLSKKTLLRFWLPFGFILILVIFVTGLLLRKPNTYPKMIPEFFCDT
In the case of B1, the binding entry in test [1] was “binds”.

B2: endogenous IL-13Rα2 of glioma cells and primary GBM tumors (receptor, UniProt Q14627 27-380)
chain: B1 chain
On to B2, for which the binding entry in test [2] and in test [3] was “binds” each time.
